About 1,400 (4.5%) of roughly 31,000 sequences were called active.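 Rule for the calls: active = median seed-adjusted z-score above 1 or below -1; inactive = the rest.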 The list shows a part of the results.

This experiment in a line: Novel Modifiers of Survival Motor Neuron (SMN) Protein: Gene Identification via Genome-wide siRNA Screen.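 Note: luminescence tracks full-length SMN protein made from the SMN2 reporter.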 The following applies: HEK293T SMN2-luciferase reporter, siRNA knockdown, 72 h; actives lie on both sides. In a few lines: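 HEK293T cells stably expressing an SMN2 splicing/cDNA-luciferase reporter were reverse-transfected with a druggable-genome siRNA library and read by luminescence at 72 hours; hits defined by MAD score above 1.0 or below -1.0.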
As to AGAGUAAGAUAGAAGACCATT against TCF3, the median seed-adjusted z-score was inactive: -0.0126. To GCUACGCAAAAUACAAUAATT against CPA3 belongs inactive: 0.192.

With GCUUAUGCGUAGAUCCUUUTT against SMYD4, the median seed-adjusted z-score was inactive: 0.272. With AGAGCCUGCGGACCACUAUTT against TRIM62, the median seed-adjusted z-score was inactive: -0.000231. For the sequence GAUGUACUCCGUUAACAAATT against BIRC8, the median seed-adjusted z-score was inactive: 0.0184. Take GGUAAUUUGUUCUUGGUGATT against MTNR1B: the median seed-adjusted z-score is inactive: -0.393. To CCUUCUCAAUGGAUUCCAATT against VN1R1 belongs inactive: 0.531; to GCACAAUACUGUGACCGUATT against USP24, inactive: 0.101; to UGCUUGCCGCUACCUGUAATT against SP8, inactive: -0.215. To GCCUUAUUCUGAUCAUGGATT against BOLL belongs inactive: -0.072.

GGAUGCACAUUAUUGAAGATT against SEMA4G: the median seed-adjusted z-score was inactive: 0.188. The same measure for GGACAUCACUUGUUGCACUTT against HTR1B: inactive: -0.221; for GGGUCUUACCGAUGUCUGATT against ERMAP: inactive: -0.276; for GAAGGGUGCUGAACGAGGATT against DNAJB13: inactive: 0.092. The same measure for GAAUGCCUCAGGAUCUAGATT against FOXO4: inactive: -0.0576; for CAAGAUCUAUGAUAAGGAUTT against GUCA1B: inactive: 0; for AGUCAAAGGUGGAAGACGATT against GBX2: inactive: -0.442.

For the sequence CUCUUUAUGUGAUCCUGUATT against PLXNB3, the median seed-adjusted z-score was inactive: -0.0652. To CCAAACCACUAUGAACUGATT against TTLL1 belongs inactive: 0.322. With GUAUAAGUAUAGUGGAAAATT against PLEKHF2, the median seed-adjusted z-score is inactive: 0.0967.

As for CGCGAUUUGGAGAUCCUUATT against SLIT3, the median seed-adjusted z-score is inactive: -0.453.

Take AGUACAACAGUGAAUGGAATT against MRGPRX2: the median seed-adjusted z-score is inactive: 0.0476. Take GGACAGGGCGUCUUCCUAATT against NFIC: the median seed-adjusted z-score is inactive: 0.72. Regarding CUUUCUACCAAUUCUCAUATT against ZNF493, the median seed-adjusted z-score is inactive: 0.0872. To CAAGCUCCUUUGACACGCATT against RRN3 belongs inactive: 0.0382. To AAGUUGCCGUUGUCCCUAATT against TRIM45 belongs inactive: -0.0974. To CCAAGGUCUUUGUCCUAGATT against CLDN19 belongs inactive: 0; to GAAUGACUUUUAUUGAGCUTT against PCSK9, inactive: 0.146; to CAUCUCCAAUGACAAAUUUTT against TFDP1, inactive: 0.0449.
